System: MCF-7 breast cancer cells
Assay: MCF-7 growth analysis (estrogen agonist and antagonist activity, MTT assay)
Assay type: cell-based
Conditions: Homo sapiens, MCF7, MCF-7 growth with 17β-estradiol (10 pM) present simultaneously, 72 hours
Protocol: Test Example 2 determines the estrogen agonist and antagonist activities of the compound according to the present invention in reproduction system cells. […] The present test was carried out according to the following procedures. MCF-7 breast cancer cells were cultured in the preservation medium until the compound evaluation. The preservation medium is the MEM (minimum essential medium, phenol red-free, Gibco, ##51200-038) supplemented with 10% (volume/volume) fetal bovine serum (FBS), 2 mM L-glutamine, 1 mM sodium pyruvate, non-essential amino acids (0.1 mM, Gibco, #15240-062), and antibiotic-antimycotic solution ( 1/50 of culture medium volume, Gibco). Five days prior to analysis, the preservation medium was exchanged with analytical medium to which 10% charcoal-stripped fetal bovine serum (charcoal-FBS) was added instead of 10% FBS, so as to deprive the MCF-7 cells of endogenous steroids. Twenty-four hours after exchange to the analytical medium, the MCF-7 cells were removed from the preservation flask using cell isolation medium (trypsin-EDTA solution, Gibco). The cells were washed with analytical medium once, and cell suspension at 50,000 cell/ml was prepared using the analytical medium. […] For each well of the microculture, the optical density at 590 nm due to the dissolved formazan crystals was measured. […]

`CC/C(=C(\c1ccccc1)c1ccc(OCCN(C)C)cc1)c1ccccc1` [Comparative Example, Tamoxifen, reference compound] was tested, and the IC50 was 0.0861 µM.

— patent US8399520B2, “Selective estrogen receptor modulator” (Eisai R&D Management Co., Ltd., priority 2002, dated 2013)
